{"source": "PubChem BioAssay AID1508600", "about": "(Functional Genomics Laboratory (NCATS/FGL), 2020)", "note": "The whole screen tested about 53,000 sequences, of which about 3,700 (7%) were called active.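 The calls were made as follows: active = gene knockdowns whose robust z-score for IL-1 alpha signal is at least 2 or at most -2, so actives lie on both sides; inactive = the rest.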 The list shows a part of the results.", "data": [{"test": "Components of the Cytosolic LPS Sensing Pathway: Gene Identification via Genome-wide siRNA Screen;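 also: robust z of the log signal after scaling to non-targeting control siRNA wells of the plate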", "settings": "RAW264.7 macrophages, IL-1a HTRF, actives lie on both sides, screened at 100 nM (by protocol), cells primed 5 h with Pam3CSK4 first", "outline": "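Supernatant IL-1a by HTRF from RAW264.7 cells primed with Pam3CSK4 (5 hours) and transfected with LipidA (24 hour) after 48h siRNA knockdown at 100 nM; cell viability checked with CellTiter-Glo.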", "values": [{"sequence": "GCAGAAAGCAACACGCCCUTT against Pramel20", "z-score": "inactive: 0.631"}, {"sequence": "GGAAAAGCAUCUUCUCUUUTT against Rnf141", "z-score": "inactive: 0.0772"}, {"sequence": "GACAUUUCGACCUUCCAGUTT against Coq2", "z-score": "inactive: 1.63"}, {"sequence": "GGUUCAAAUAUCACAUUGATT against B230206H07Rik", "z-score": "inactive: 1.39"}, {"sequence": "GGUCGUGAUAUUAUUGGGUTT against Ddx47", "z-score": "active: 2.91"}, {"sequence": "GCUGGAUGGCCGUUUCAAATT against Fancd2os", "z-score": "inactive: -0.00925"}, {"sequence": "GGAAGCAGAGAAAAUGUUCTT against Snrpa1", "z-score": "inactive: -1.9"}, {"sequence": "GCUUUAUCAUGAGCUCCACTT against Zfp629", "z-score": "inactive: 0.757"}, {"sequence": "GCCAAAAUCAAGAUUUGCUTT against Angptl3", "z-score": "inactive: -0.296"}, {"sequence": "GGUAAACGAUCCAGAUGCATT against Tmem220", "z-score": "inactive: 0.0291"}, {"sequence": "CCAAGUGAUCUACAGUGAUTT against Mrc2", "z-score": "inactive: 0.00997"}, {"sequence": "UGGCCACGACCCUGAACUUTT against Ghrhr", "z-score": "inactive: 0.56"}, {"sequence": "GGCCAAAAUGGUGUUGUUCTT against Oas1c", "z-score": "inactive: 1.1"}, {"sequence": "GGCUUACAUACAUACUAUGTT against Ddx3y", "z-score": "inactive: 0.886"}, {"sequence": "GCCAUGUGCUGGAAAACUCTT against Cfp", "z-score": "inactive: -0.14"}, {"sequence": "GGAGAACUUCAACAAUGUCTT against Tesc", "z-score": "inactive: 0.46"}, {"sequence": "GCUGUCUAUUUCCUAUACUTT against Bcl7a", "z-score": "inactive: 0.171"}, {"sequence": "GGCGUGUAUCUAUACACACTT against Glp1r", "z-score": "active: 3.1"}, {"sequence": "GGUUUUACUCCUUUAAUGUTT against Cbfa2t3", "z-score": "inactive: 0.193"}, {"sequence": "GGACUUAUGGUUUUUCCCATT against Atp1b3", "z-score": "inactive: -1.38"}, {"sequence": "GGAAGAUAAACCUAUCAUCTT against Phlda3", "z-score": "inactive: 0.477"}, {"sequence": "GGCAAUGUGUCUUUGAUCATT against Lamc2", "z-score": "inactive: -0.757"}, {"sequence": "GGACCAUCACUUCCAGCUATT against Rab1b", "z-score": "inactive: -0.726"}, {"sequence": "GGCAUUUAAAACUCAUUGUTT against G6pdx", "z-score": "inactive: -1.47"}, {"sequence": "CGCAAUUCAGGUACCAAAUTT against Ndufv1", "z-score": "inactive: -0.0623"}, {"sequence": "GGUUCAGUUUGGAAAUGAATT against Rbm26", "z-score": "inactive: 0.809"}, {"sequence": "GCAGUGCAUAACAUUGCCATT against Marcks", "z-score": "inactive: -1.38"}, {"sequence": "GGAGAACAACCUUCUCAUATT against Cog7", "z-score": "inactive: -0.398"}, {"sequence": "GGACAAAUGAACAUGCUGATT against Edn2", "z-score": "active: -2.26"}, {"sequence": "CCUGUAUAGAGGUGGGAAGTT against Tk2", "z-score": "inactive: 1.74"}, {"sequence": "GGAAGCGUAUUUUGGUGAUTT against Cox10", "z-score": "inactive: 0.642"}, {"sequence": "GGAAUUUAGAAGGAUUAGGTT against Ptp4a1", "z-score": "inactive: 1.13"}, {"sequence": "GGAGUUUGAUGCAAAUUUUTT against Prl3a1", "z-score": "inactive: 0.798"}, {"sequence": "GCGAUACCGUGCCAUGUUUTT against Dohh", "z-score": "inactive: -1.21"}, {"sequence": "GGAGCAGAUUCUUCAAUAUTT against Atp11a", "z-score": "inactive: 0.294"}, {"sequence": "GGUAUGUCUAAGAAAACCATT against Pi4ka", "z-score": "inactive: 0.173"}, {"sequence": "GGAGGUCCCUUCUUCAGCUTT against Zfp410", "z-score": "inactive: -1.19"}, {"sequence": "GGAACCCAUCAGCUACAUGTT against Spaca4", "z-score": "inactive: -0.723"}, {"sequence": "GCCAAGGGUUUGAAAGCCATT against Tpm1", "z-score": "inactive: -0.949"}, {"sequence": "GGUGUUGAACAAGUGCGACTT against Tescl", "z-score": "inactive: -0.987"}, {"sequence": "GCAUCUCGUGUGACUUAAGTT against Ak1", "z-score": "inactive: -0.642"}, {"sequence": "GGAUACUCUCGAACUCGAUTT against Cstdc2", "z-score": "inactive: -0.197"}, {"sequence": "GGAUGACUGUCUUCCAUCGTT against Hrg", "z-score": "inactive: -1.11"}, {"sequence": "GGCACCUUCAAAUUACAUCTT against Asl", "z-score": "inactive: -0.376"}, {"sequence": "GGGUGGACUGAAUGCUGAUTT against Qtrt1", "z-score": "inactive: 0.665"}, {"sequence": "CCCAGUAACUAGUUUGUAATT against Tbc1d2", "z-score": "inactive: -0.629"}, {"sequence": "GGGAUUCGGGUUCGUAACUTT against Rbfox2", "z-score": "inactive: -0.983"}, {"sequence": "CGUUCUUGAGAGUCGAUCATT against Smoc2", "z-score": "inactive: -0.19"}, {"sequence": "CGAUUACUACAUUACAUCATT against Efnb1", "z-score": "inactive: 1.2"}, {"sequence": "GGUGAUCAGUGCCUACAGATT against Ppp1r37", "z-score": "inactive: 0.244"}, {"sequence": "CAUCUUUCAUCAAAUAACUTT against Krtap31-2", "z-score": "active: 2.49"}, {"sequence": "CCGUCGUACUUGUUCUCCUTT against Otog", "z-score": "inactive: -0.387"}, {"sequence": "GCCAUUCAAUGAUACAAUGTT against Adamts19", "z-score": "inactive: 0.684"}, {"sequence": "GGUGUUUACAACCUCACAATT against Pecr", "z-score": "inactive: 0.105"}, {"sequence": "GGGUCUUGUGAUCUCAAUUTT against Cyp2a5", "z-score": "inactive: -0.785"}, {"sequence": "GGUGUCAAGUGGAUUAUCCTT against Slc12a8", "z-score": "inactive: -1.5"}, {"sequence": "GGAAUGUUAACAAAGAGCATT against Sgcb", "z-score": "inactive: 0.8"}, {"sequence": "GGGACACUCCACCUUUCAUTT against Notch4", "z-score": "inactive: -0.637"}, {"sequence": "GCACCGGUGAAAAAGAAGATT against Pinx1", "z-score": "inactive: -0.607"}, {"sequence": "GGAAUCGUUCCGUAGUGACTT against Olfr959", "z-score": "inactive: -0.0954"}, {"sequence": "GGAGAAAGAAGCUAGUGAGTT against Gm6787", "z-score": "active: -2.77"}, {"sequence": "GGGUUCCUAUGGCAAUGGGTT against Adprhl2", "z-score": "inactive: -1.18"}, {"sequence": "CGAACUGUCAUACAGAUUCTT against Gadd45b", "z-score": "inactive: 0.475"}, {"sequence": "GCAUGUGUCAAGAUGUCUGTT against Tec", "z-score": "inactive: 1.36"}, {"sequence": "CCACAUGCCAAAAUAAUACTT against Oxr1", "z-score": "inactive: -0.771"}, {"sequence": "GGUGAGAAGGUGCUAGUGUTT against Ugt1a5", "z-score": "inactive: 0.679"}, {"sequence": "GGAUCAGUUCAACGGACAGTT against Oas1d", "z-score": "inactive: 0.741"}, {"sequence": "GGAUUUGUUGACAAGAACATT against Myo1b", "z-score": "inactive: 1.26"}, {"sequence": "GGCUGGUUGGAAGGAAAAUTT against Ints6l", "z-score": "active: 2.1"}, {"sequence": "GGAAAUCUUUGAGAACUAUTT against Tpr", "z-score": "inactive: -0.0193"}, {"sequence": "GGGAUCAUUGCUGUCCUCUTT against Adora2b", "z-score": "inactive: -1.33"}, {"sequence": "GGCCUACGAACAGGUCAUGTT against Foxa2", "z-score": "inactive: 0.0835"}, {"sequence": "GGGCCUCUAUCAACACUGUTT against Tomm40l", "z-score": "inactive: 0.951"}, {"sequence": "GCAAGAACUGAAUCUAGUGTT against Tepsin", "z-score": "inactive: 0.785"}, {"sequence": "GCGACACAGAUUCAGAGAATT against Tmem178b", "z-score": "inactive: 0.33"}, {"sequence": "CCAUUCUUGCCUUUGUGCUTT against Cep55", "z-score": "inactive: -1.63"}, {"sequence": "GGGCUCAUGAACUAAAAUUTT against C2cd2", "z-score": "inactive: 0.821"}, {"sequence": "GGCUGCAUGAUUUAUAGAGTT against Il18", "z-score": "inactive: 1"}, {"sequence": "GGCACGUAUGUGGUAGACATT against Zdhhc7", "z-score": "inactive: -1.08"}, {"sequence": "CGUGCAACAAGACAUCUAATT against Wnt4", "z-score": "inactive: -0.452"}, {"sequence": "GGAAUUUGGAAUGGCUACUTT against Hmcn2", "z-score": "inactive: -0.126"}, {"sequence": "GGAGAUCCUAGAAACCAUCTT against Pex6", "z-score": "inactive: 1.71"}, {"sequence": "GCCUUCAAAUGAAGGAAGGTT against Olfr699", "z-score": "inactive: 0.0289"}, {"sequence": "GCCUGCAUUAGGAACCAAATT against Galnt9", "z-score": "inactive: 0.222"}, {"sequence": "GGACCAAGUGGAAGAAGCATT against Nkx1-2", "z-score": "active: -2.02"}, {"sequence": "GGACUAGCAUUCAUGUUCCTT against Zfy2", "z-score": "inactive: 0.618"}, {"sequence": "GGUCUGAAAAAAGUAUCUUTT against Zfp943", "z-score": "inactive: -1.07"}, {"sequence": "GGCGGAUUCAACAGACCUCTT against Snrnp27", "z-score": "inactive: -0.01"}, {"sequence": "GCAACGGACCUUUAAAAAATT against Mex3d", "z-score": "inactive: -0.681"}, {"sequence": "GCUUGUGAGUCUUUUCCUATT against Nfxl1", "z-score": "inactive: 0.571"}, {"sequence": "GCCCUCAUCAGAAGAAACUTT against Cox7b2", "z-score": "inactive: 0.864"}, {"sequence": "CCAUAGCACUAAAUCAGAUTT against Nipbl", "z-score": "inactive: -1.3"}, {"sequence": "GGUCCAGAUUUACAACCCATT against St3gal2", "z-score": "inactive: -0.81"}, {"sequence": "UUGGGAUGGGUCAUGCCUUTT against Gm10319", "z-score": "inactive: 0.484"}, {"sequence": "CGUUGCUGGUCCAACAGAATT against Vtcn1", "z-score": "inactive: -0.252"}, {"sequence": "GCUAUCACAAUAAAGGAUATT against Syt14", "z-score": "inactive: -0.2"}, {"sequence": "GGAACUUUUCCUGGCCUCGTT against 9530080O11Rik", "z-score": "inactive: 1.79"}, {"sequence": "GGACGUGGUUGUUACCUCCTT against Stfa2l1", "z-score": "inactive: -0.226"}, {"sequence": "GGAAGUAUCGAGAUUCAUGTT against Pitpnm3", "z-score": "inactive: 0.0165"}, {"sequence": "GGCAUUGCUUUGCUGGUCUTT against Atp5md", "z-score": "inactive: 0.97"}, {"sequence": "GGAAGUGAGAGUUAAGGCCTT against Rhov", "z-score": "inactive: 0.748"}, {"sequence": "CAGUCGAAUUUCAGUCACATT against Olfr417", "z-score": "inactive: -0.111"}, {"sequence": "GGCUGAACUCAAAAAGACGTT against Hand1", "z-score": "inactive: 1.69"}, {"sequence": "AGAUUUUGGGAAUAUAGUGTT against Klra16", "z-score": "inactive: 0.098"}, {"sequence": "CGAACUGGCUGAGAUCAUCTT against Mrps17", "z-score": "inactive: -1.56"}, {"sequence": "GGGAAGAAGAUGGAAUUUATT against Smoc1", "z-score": "inactive: 1.22"}, {"sequence": "GGCCUACGAAGUGCAAAGATT against Sipa1l3", "z-score": "inactive: -0.667"}]}]}
